Usually AC50 stands for the concentration at which the activity in the assay is half-maximal.

Results on 55 compounds are retold here after PubChem BioAssay AID1487 (National Center for Advancing Translational Sciences (NCATS), 2009).

The other results are listed elsewhere or left out. Further columns of the screen follow, without active or inactive calls. Most of these compounds were active or inconclusive in the main read-out, so they are no random draw. Potencies come from curve fits of mixed quality, noted in brackets.

The experiment can be described thus: qHTS Assay for Modulators of Lamin A Splicing. The settings on record: HeLa LMNA splicing GFP/RFP minigene ratio, 48 h. In a few lines: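 S3 HeLa stable clones carrying a lamin A-EGFP splicing minigene plus DsRed2 were seeded at 600 cells/well in Opti-MEM with 2% FBS, pin-dosed and incubated 48 h at 37°C. Acumen cytometry (488 nm) gave the GFP/RFP total-intensity ratio.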

[1] abbreviates: measured here: GFP splicing reporter channel.
Where [2] appears, read: measured here: RFP viability control channel.

For the compound `CCN(CC(=O)NC1CCS(=O)(=O)C1)C(=O)COc1ccccc1-c1ccccc1` (configuration not stated), the concentration at half-maximal activity (AC50) under setting [1] is 17.8 µM [rising, single point].
As for `Cc1[nH]c2ccccc2c1/C=N/Nc1nc(Nc2ccc(F)cc2)nc(N2CCOCC2)n1`, the half-maximal activity concentration (AC50) under setting [2] was 2 µM [rising, full curve].
In the case of `O=C(CCN1C(=O)C2C3CCC(C3)C2C1=O)Nc1ccccc1C(F)(F)F` (configuration not stated), under setting [1], the AC50 was 0.02 µM [falling, full curve, poor fit].
Take `Cc1coc2c(O)cc3c(c12)OC1(N2CCCCC2)C(=O)NCCCC31` (configuration not stated): under setting [2], the AC50 is 8.91 µM [rising, single point].
With `Cn1c(CCN2CCCCC2)nc2cc(NS(=O)(=O)c3ccccc3)ccc21`, under setting [2], the AC50 is 20 µM [rising, single point].
Same read-out and setting: the result for `CN(c1ccccc1)S(=O)(=O)c1cccc(NC(=O)CSc2ncn[nH]2)c1` reads 8.91 µM [rising, partial curve, poor fit].
For `O=C1c2ccccc2-c2onc3ccc(NCCCn4ccnc4)c1c23`, the half-maximal activity concentration (AC50) was 14.1 µM [rising, single point] under setting [1] and 25.1 µM [rising, single point] under setting [2].
In the case of `O=C(Nc1ccncc1)c1ccc(NS(=O)(=O)c2cccc(F)c2)cc1`, the AC50 reads like this: under setting [1], 11.2 µM [rising, partial curve]; under setting [2], 15.8 µM [rising, partial curve].
Regarding `O=C(O)CCn1cc(/C=C\C(=O)c2ccc(Cl)cc2)c(-c2cccc(Br)c2)n1`, the AC50 under setting [1] was 35.5 µM [falling, single point] and the AC50 under setting [2] is 2.51 µM [rising, partial curve].
Take `Cc1cc(Nc2ccccc2C)nc(-n2nc(C)cc2C)n1`: under setting [1], the AC50 was 0.708 µM [rising, single point].
For `COc1cc2c(cc1NC(=O)CSc1cccc[n+]1[O-])oc1ccccc12`, the AC50 reads like this: under setting [1], 12.6 µM [rising, single point]; under setting [2], 14.1 µM [rising, single point].
As to `COCCn1c(=O)c(CCc2ccccc2)nc2cnc(OCc3ccccc3)nc21`, the AC50 under setting [1] is 35.5 µM [falling, single point] and the AC50 under setting [2] is 35.5 µM [falling, single point].
Regarding `O=C(N/N=C/c1cc([N+](=O)[O-])ccc1O)/C(=C\c1cccs1)NC(=O)c1ccccc1`, the AC50 under setting [2] is 28.2 µM [rising, single point].
Turning to `Cc1noc(C)c1-c1nccc(N2CCN(C)CC2)n1`, the AC50 under setting [1] is 17.8 µM [falling, single point].
As for `Cc1ccccc1NS(=O)(=O)c1ccc2[nH]cc(C(=O)NC(C)c3ccccc3)c(=O)c2c1` (configuration not stated), the AC50 is 0.0398 µM [falling, full curve] under setting [1] and 0.0501 µM [falling, full curve] under setting [2].
For `COC(=O)[C@@]1(Cc2ccccc2)[C@@H]2C(=CC(=O)[C@H]2CC(=O)C(=O)N(C)C)CN1C(=O)c1ccccc1`, under setting [2], the AC50 was 12.6 µM [falling, partial curve, poor fit].
Still for that read-out and setting: under `CCOC(=O)N1CCN(S(=O)(=O)c2ccc(C)c(C)c2C)CC1` stands 11.2 µM [rising, partial curve, poor fit].
In the case of `O=C(Nc1ccc(-c2noc(CCc3ccccc3)n2)cc1)c1cccnc1`, the AC50 under setting [2] is 35.5 µM [rising, single point].
With `CCNc1ncc2nc(-c3ccc(F)cc3)c(=O)n(CCc3ccccc3)c2n1`, the AC50 under setting [1] was 14.1 µM [falling, partial curve].
Turning to `COc1cc(Cl)c(C)cc1NC(C)C(=O)Nc1cc(C(F)(F)F)ccc1N1CCOCC1` (configuration not stated), the AC50 runs as follows: under setting [1], 15.8 µM [rising, single point]; under setting [2], 22.4 µM [rising, partial curve].
Regarding `Cc1cccc(Nc2cc(C)c3c(O)cccc3n2)c1C`, the AC50 under setting [1] was 3.55 µM [rising, full curve] and the AC50 under setting [2] was 11.2 µM [rising, partial curve].
As for `CCC(=O)N1CCN(c2ccccc2NC(=O)COc2cc(C)ccc2C(C)C)CC1`, the AC50 under setting [2] was 22.4 µM [rising, single point].
As to `CCN(CC)c1ccc(Nc2nc(N3CCOCC3)c3ccccc3n2)cc1`, the AC50 was 15.8 µM [rising, single point] under setting [1] and 12.6 µM [rising, partial curve] under setting [2].
Regarding `C=C(C)C1CC=C(C(=O)O)CC1` (configuration not stated), the concentration at half-maximal activity (AC50) under setting [2] was 0.00447 µM [falling, full curve, poor fit].
Turning to `COc1ccc2cc(C3(C)NC(=O)NC3=O)ccc2c1` (configuration not stated), the AC50 was 15.8 µM [falling, single point] under setting [1] and 7.08 µM [falling, partial curve, poor fit] under setting [2].
With `COc1ccc(-c2nc(C)c(CCNC(=O)C(=O)Nc3ccccc3C#N)s2)cc1OC`, the AC50 under setting [2] was 20 µM [falling, single point].
`Cc1ccc(-c2cc(-c3ccc4c(c3)OCO4)c(C#N)c(N)n2)o1`: the AC50 under setting [1] is 14.1 µM [rising, single point].
As for `COc1ccc(C(=O)CSc2n[nH]c(=O)[nH]c2=O)cc1`, the half-maximal activity concentration (AC50) runs as follows: under setting [1], 28.2 µM [falling, partial curve]; under setting [2], 10 µM [falling, partial curve].
`CC1=C(c2ccc(F)cc2)S(=O)(=O)NC1=NCc1ccccc1F`: the AC50 under setting [1] was 0.562 µM [rising, full curve, poor fit].
For the compound `NNc1nc2c(Cl)cccc2s1`, under setting [2], the concentration at half-maximal activity (AC50) was 12.6 µM [rising, partial curve].
`Cc1cc(C)cc(Nc2cc(C(=O)NCCCN(Cc3ccccc3)C(C)C)c3ccccc3n2)c1`: the half-maximal activity concentration (AC50) reads like this: under setting [1], 28.2 µM [falling, single point]; under setting [2], 35.5 µM [falling, single point].
`O=S(=O)(NCCc1ccncc1)c1ccc(S(=O)(=O)N2CCCCCC2)cc1`: the AC50 under setting [1] is 14.1 µM [rising, single point] and the AC50 under setting [2] is 14.1 µM [rising, single point].
As to `CCn1c(C)nc2cc(C(=O)NNC(=S)NC(=O)c3ccccc3)ccc21`, the AC50 under setting [1] is 8.91 µM [falling, partial curve, poor fit].
For `Cc1ccc(Sc2ccc([N+](=O)[O-])cc2[N+](=O)[O-])nc1`, the AC50 under setting [2] is 31.6 µM [rising, single point].
Still for that read-out and setting: under `COc1ccc(CCNC(=S)Nc2cccc(C)c2C)cc1` stands 35.5 µM [rising, single point].
`CCC(C)(C)n1nnnc1C(c1cc2ccc(OC)cc2[nH]c1=O)N1CCc2ccccc21` (configuration not stated): the AC50 under setting [1] is 10 µM [rising, partial curve].
Turning to `O=c1[nH]c2cc(Cl)c(Cl)cc2[nH]c1=O`, the half-maximal activity concentration (AC50) under setting [1] was 5.62 µM [falling, partial curve, poor fit] and the AC50 under setting [2] is 11.2 µM [falling, partial curve].
For the compound `CC1=CC(C)(C)NC(=S)N1c1ccccc1C`, under setting [1], the AC50 is 5.62 µM [rising, single point].
In the case of `Cc1nn(-c2ccccc2)c2ncc(C(=O)c3cc(Cl)ccc3O)cc12`, the half-maximal activity concentration (AC50) was 2.82 µM [rising, single point] under setting [1] and 35.5 µM [rising, single point] under setting [2].
Regarding `CCOC(=O)c1c(NC(=O)C2=C(C)NC(=S)NC2c2ccc(CC)cc2)sc(C)c1C` (configuration not stated), the concentration at half-maximal activity (AC50) is 10 µM [rising, partial curve] under setting [1] and 12.6 µM [rising, single point] under setting [2].
For the compound `COc1cccc(/C=N/NC(=O)c2nc(-c3ccccc3)cc(-c3ccccc3)n2)c1O`, the AC50 under setting [2] is 8.91 µM [rising, partial curve].
In the case of `Cc1ccc(C)c2sc(NC(=O)c3ccc(S(=O)(=O)N4CCCC4)cc3)nc12`, the concentration at half-maximal activity (AC50) under setting [2] was 5.62 µM [falling, full curve, poor fit].
As for `Cc1cc(-c2c(C)[nH]n(-c3ccc(Cl)cc3)c2=O)n[nH]1`, the AC50 by setting is: under setting [1], 15.8 µM [falling, partial curve]; under setting [2], 28.2 µM [falling, single point].
Turning to `CCOc1cnc(-c2c(-c3c(Cl)cccc3Cl)noc2C)o1`, the AC50 under setting [2] is 31.6 µM [rising, single point].
Take `CCOc1ccc(CNC(=O)c2ccc3c(c2)nc2n3CCOC2)cc1`: under setting [1], the AC50 is 0.794 µM [rising, full curve, poor fit].
In the case of `CCOc1cc(/C=N/NC(=O)c2ccc(CN3CCOCC3)cc2)ccc1OCc1ccccc1`, the AC50 under setting [2] was 7.94 µM [rising, partial curve, poor fit].
Take `CCCOc1ccccc1N/C(=N/c1nc(C)cc(C)n1)NC(=O)COc1ccc(OC)cc1`: the AC50 under setting [1] is 31.6 µM [rising, single point] and the AC50 under setting [2] is 35.5 µM [rising, single point].
With `Cc1ccc(C(c2nnnn2C(C)(C)C)N(Cc2ccco2)Cc2cccs2)cc1` (configuration not stated), under setting [2], the AC50 was 22.4 µM [rising, single point].
Take `O=C(COc1cc(Cl)c(Cl)cc1Cl)Nc1ccncc1`: under setting [2], the AC50 was 35.5 µM [rising, single point].
`CCOC(=O)c1c(-c2ccccc2Cl)csc1NC(=O)CSc1nc(C)cc(=O)[nH]1`: the AC50 by setting is: under setting [1], 11.2 µM [rising, partial curve, poor fit]; under setting [2], 25.1 µM [rising, partial curve].
On to `C=CCOc1c(Cl)cc(CNc2ccc(N(C)C)cc2)cc1OC`, for which the AC50 runs as follows: under setting [1], 35.5 µM [falling, single point]; under setting [2], 35.5 µM [falling, single point].
Regarding `[O-][n+]1c2c(c3c4non(O)c4ccc31)CCCC2`, the AC50 under setting [2] was 22.4 µM [rising, single point].
Consider `CCC1C(=NO)C(CC)C(c2ccccc2)NC1c1ccccc1` (configuration not stated), for which the AC50 runs as follows: under setting [1], 35.5 µM [falling, single point]; under setting [2], 3.16 µM [falling, single point].
On to `COc1ccc(NC(=O)Cn2c(=O)n(CC3CCCO3)c(=O)c3ccccc32)c(OC)c1` (configuration not stated), for which the AC50 under setting [1] was 14.1 µM [falling, partial curve].
As to `O=C(CCc1ccc(S(=O)(=O)N2CCOCC2)cc1)Nc1nc(COc2ccccc2)cs1`, the AC50 is, setting by setting: under setting [1], 10 µM [rising, partial curve]; under setting [2], 8.91 µM [rising, partial curve].
